Values quoted from earlier work in patent publication US20190071670A1, “Methods Of Treatment For Alpha-1 Antitrypsin Deficiency” (Arrowhead Pharmaceuticals, Inc., priority 2016, published 2019).
At least one compound was matched to its structure with a doubt left.

Conditions: some children with liver disease associated with AATD; cited from earlier work

Compound: C[C@H](CCC(=O)O)[C@H]1CC[C@H]2[C@@H]3[C@@H](O)C[C@@H]4C[C@H](O)CC[C@]4(C)[C@H]3CC[C@]12C [UDCA, ursodeoxycholic acid]
- clinical status and liver test results: improve clinical status and liver test results
